PubChem BioAssay AID1159578 – Peter MacCallum Cancer Centre, 2015
Here is one part, drawn at random, of about 18,000 deposited reagents. About 1,030 of all reagents (5.7%) were called active. 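Inactive calls also include pools with fewer than 3300 nuclei, whose migration was not assessed.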 Raw values vary from plate to plate and are shown uncorrected. Not all columns of the deposit are shown. No sequences are given here.

Purpose: 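Genome-wide hunt for genes controlling movement of lymphatic endothelial cells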 (primary screen)
Cells: human lymphatic endothelial cells
Knock-down reagent: siRNA pool against human genes, 40 nM
Timing: 48 h after transfection
Measurement: 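Cells stained with dye and imaged after a scratch; covered wound area and nuclei counted, duplicates averaged, migration set against mock wells and turned into a robust z-score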
Reading the numbers: migration robust z-score: higher = faster migration into the scratch; nuclei per well: higher = more cells in the well
Call rule: 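Pools averaging fewer than 3300 nuclei are never called; remaining pools count as changed when migration robust z lies outside -2 to 2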
Meaning of the calls: active = migration changed; inactive = no migration change, or too few cells

With knock-down of SEPTIN12, the record shows migration robust z-score 0.72; migration class with cell-count check migration z between -2 and 2; enough cells; nuclei per well, duplicate mean 4596; inactive.
Knock-down of PRH1 came out at: migration robust z-score -0.57; migration class with cell-count check migration z between -2 and 2; enough cells; nuclei per well, duplicate mean 8072; inactive.
KRTAP4-12 gave migration robust z-score 0.52; migration class with cell-count check migration z between -2 and 2; enough cells; nuclei per well, duplicate mean 3970; inactive.
Depletion of RNASE13 came out at: migration robust z-score -0.92; migration class with cell-count check migration z between -2 and 2; enough cells; nuclei per well, duplicate mean 5616; inactive.
SCG5 scored migration robust z-score -0.24; migration class with cell-count check migration z between -2 and 2; enough cells; nuclei per well, duplicate mean 6276; inactive.
Against RAB13, the entry reads migration robust z-score 1.03; migration class with cell-count check migration z between -2 and 2; enough cells; nuclei per well, duplicate mean 5182; inactive.
SMCR8 showed migration robust z-score 0.11; migration class with cell-count check migration z between -2 and 2; enough cells; nuclei per well, duplicate mean 3528; inactive.
Depletion of KLC4 came out at: migration robust z-score 0.98; migration class with cell-count check migration z between -2 and 2; enough cells; nuclei per well, duplicate mean 4898; inactive.
PYGB gave migration robust z-score 0.36; migration class with cell-count check migration z between -2 and 2; enough cells; nuclei per well, duplicate mean 6725; inactive.
With knock-down of RAB5A, the record shows migration robust z-score -0.24; migration class with cell-count check migration z between -2 and 2; enough cells; nuclei per well, duplicate mean 4641; inactive.
SLC5A8 gave migration robust z-score 1.4; migration class with cell-count check migration z between -2 and 2; enough cells; nuclei per well, duplicate mean 6424; inactive.
Against CIMAP2, the entry reads migration robust z-score -0.38; migration class with cell-count check migration z between -2 and 2; enough cells; nuclei per well, duplicate mean 5682; inactive.
After knock-down of FAP, the record shows migration robust z-score -0.21; migration class with cell-count check migration z between -2 and 2; enough cells; nuclei per well, duplicate mean 4932; inactive.
After knock-down of NR2C1, the screen gave migration robust z-score -0.02; migration class with cell-count check migration z between -2 and 2; enough cells; nuclei per well, duplicate mean 4440; inactive.
